Measurements reported in the supplement of paper PMC3334620.
The full ranking holds about 33,000 sequences; the median of “E-score (-0.5 to 0.5)” is about -8e-05, and the highest 2% start at about 0.23. This is one part of the list.

Target: T1, Nrg2 (UniProt P38082)
T1 sequence: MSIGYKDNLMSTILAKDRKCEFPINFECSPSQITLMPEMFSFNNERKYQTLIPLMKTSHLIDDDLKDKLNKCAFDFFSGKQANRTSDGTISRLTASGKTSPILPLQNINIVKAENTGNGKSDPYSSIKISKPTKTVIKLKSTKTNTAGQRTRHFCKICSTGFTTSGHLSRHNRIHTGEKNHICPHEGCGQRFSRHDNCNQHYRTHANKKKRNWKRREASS
Test: PBM E-score (8-mer binding enrichment) (E-score (-0.5 to 0.5)); higher = stronger / more preferred TF binding
Settings: protein concentration: 100 nM; construct: GST-full length
Summary of the method: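 Universal all-10-mer Agilent arrays, fresh or stripped once, were converted to double-stranded form by primer extension. GST-tagged yeast transcription factors from PURExpress in vitro transcription/translation, full-length or DNA-binding domain only, were applied at about 100-200 nM and detected with fluorescent anti-GST. After masliner normalisation, the Universal PBM Analysis Suite scored each ungapped eight-base word together with its reverse complement by E-score.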

Sequence | PBM E-score
GTGCTGAA | -0.0741
ACCGACGA | -0.149
GTCCCGAC | 0.0418
CATTAGGA | -0.0947
TATTAAAA | 0.262
GAAGACTC | -0.26
GGTCGTAC | -0.0518
GGGTGGAA | -0.0943
ACCGCGGT | 0.0747
AGGTAGAT | -0.104
ATATATCC | 0.221
CCCTTCCG | -0.0483
CATTTACC | -0.0104
AGCATGAG | -0.0535
CGTTTCAG | 0.134
CACAGTCA | -0.00342
ACGTACCC | -0.127
AATATGTG | 0.182
CCTTATAA | 0.122
CGTCAAAG | -0.149
CGAAAACG | 0.0034
CATTCATC | 0.0561
GTGTGGGA | 0.00314
TCAGCGGA | 0.0444
CGGATGGA | 0.061

Sequence | PBM E-score
GCCTTATA | 0.0159
AATGATCT | 0.162
AGCATACC | -0.0188
CAGGCATC | -0.119
CCAAAAGC | -0.0969
AGGATTAT | -0.0837
ATCGAACC | 0.186
ACAACTCG | 0.115
ACAGTACC | -0.11
GAAGTTCA | 0.127
AACCGCGC | 0.221
ACTTTCGC | -0.0735
AACCAGGT | -0.244
AGGGCCGC | -0.0367
GAAACAAA | 0.207
CTAGCTAG | 0.111
CGATGCGA | 0.114
AGGTGGAG | -0.218
AGACGACC | 0.0156
AATTCTCA | 0.0717
AGCGACCT | -0.0964
GCTAGTCC | -0.199
AAAGAAAG | 0.17
AATAGCAT | 0.159
AGCTCTGA | -0.199

Sequence | PBM E-score
CCGGTTGA | -0.0151
ATTTCTCG | 0.285
TGCAAAAA | 0.182
GGGGATTA | 0.164
ATCGTGGC | -0.181
AGGAGCGC | -0.0981
GGCTGATA | 0.0866
GAATTACC | -0.0941
GGCTGCCC | -0.183
GTACGGAC | 0.105
ACGAGCGG | -0.066
GCGCCAGC | -0.229
CAACCAGC | 0.0587
ATCCCGGA | 0.0243
ACAGGGGG | -0.213
AAATGGAT | 0.114
CGAGTATC | -0.0715
ACGTACCT | -0.262
CCTCACGC | 0.0353
CAATTCAC | 0.0554
TGAGCACA | -0.019
AATTCCGT | 0.0895
CCCCGACA | -0.124
ACGCATGA | 0.0145
CGGTGCAA | -0.0138

Quoted at random: three records from the list.
Sequence | PBM E-score
AAATGGAT | 0.114
CCCCGACA | -0.124
CCTCACGC | 0.0353

Part of the list above, tab-delimited:
Sequence	PBM E-score
CCGGTTGA	-0.0151
TGCAAAAA	0.182
CAACCAGC	0.0587
AATTCCGT	0.0895

Carrying on:

Sequence | PBM E-score
ACCAAGTC | 0.111
CTCACCAG | -0.0488
TGCCGCAA | 0.123
TATGAGAA | 0.148
AGGAACAT | -0.0445
AGAAACTA | -0.121
CTCAGCTA | -0.144
GATCAATA | 0.181
ATAATTCG | 0.109
CAAGTAGC | 0.0513
CGTCCACG | -0.157
AGCTTTTA | 0.0375
CGGGCTAC | -0.0936
CTAACTGA | -0.00324
TGTACTAA | -0.0646
GCGACGCA | -0.123
GCGTGGAC | -0.213
CGTGTCTA | 0.0309
ACCATGGA | -0.172
ACGCGAAC | -0.0106
GTGGTCAA | 0.00864
GAAATACA | -0.0218
CGAGATAC | 0.163
AGTGGGCA | -0.00862
AGTCCACC | 0.0447

Sequence | PBM E-score
CTCTGGGA | -0.237
AAGAAGAG | 0.0586
ACGGGTCC | 0.167
ACAACTGG | 0.163
TTCTAGAA | -0.227
ACATCTCA | 0.0805
ATTACCAG | 0.0678
ATAAGACG | -0.124
TATCCTGA | 0.202
ACCGCGCG | 0.301
CGTGACTC | -0.263
ATCAAAAA | 0.237
GATATCCA | 0.166
CGTCACAC | -0.0186
CAGCAGGG | 0.0602
CCCTCCAC | -0.11
AACATTAG | -0.129
TACAAAAA | 0.0653
GCACAGGC | -0.0223
CAGACGGC | -0.16
AGCAGGCG | -0.0267
CGGGCCGC | -0.0506
GACGTTGA | 0.1
ATACCGGC | -0.0758
CTGTTTAA | 0.0598

Sequence | PBM E-score
AATCGCAA | 0.184
TAAGCTAA | 0.0275
AGTACGGG | -0.133
CACATCTG | -0.12
CTTTCGGC | -0.246
CCTTCGTA | -0.0483
AAGTAAAC | -0.00204
GTCGCCAC | -0.297
ATGGATAC | 0.0111
AAACAAAG | 0.135
TCTGGTAA | 0.0843
CCACACCA | 0.0946
GAGAGGCA | -0.0439
AGGCACCG | -0.194
AGAACTCT | 0.00451
GTACCGAC | -0.208
CGTGGCAA | -0.177
TCATTTAA | -0.0144
CGATAGTC | -0.0541
ACGAGTGC | -0.0866
ACTAAACC | -0.0137
CCCACCTA | -0.144
ATCGGCTA | 0.0602
TATAACGA | 0.0366
CAGAATCC | 0.0658

Sequence | PBM E-score
CCGTTGAA | -0.153
CATATAGC | 0.00177
GCGTAACC | -0.0731
CGCCACCA | -0.188
ATGGTTAC | -0.0938
ACAGTAAA | 0.0343
AAGGGCAG | -0.0721
CGACTTAC | -0.132
GGATTGGA | 0.0101
GGCAATTA | 0.103
GAGTGACC | -0.0155
CTGCAGGA | 0.14
CATACACG | 0.0277
CCATAAAC | -0.0309
GTAAGCGA | 0.00506
AGGCGGTA | -0.259
CGAGCTCA | 0.108
CAGGTAAG | -0.142
AATAGCGT | 0.0503
GAATGACA | -0.0127
TCCGAGAA | -0.0407
GGTCCCAC | -0.0409
